Values from PubChem BioAssay AID743121 (NCATS, 2013).
Here is one part, drawn at random, of about 26,000 reagents tested. 167 of them (0.63%) were called active. 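Calls are per gene from RSA p-values that are not deposited; an individual active-marked siRNA can sensitise only weakly.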 A number with no mark means an inactive call. The numbers tell different reagents against one gene apart. Further read-outs or replicates are left out here.

Screen: 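Partners whose loss is lethal together with topoisomerase I blockade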 (primary screen)
Cells: MDA-MB-231 cells, a human breast cancer line
Reagent: single siRNA against human genes, 20 nM siRNA (0.8 pmol per well)
Duration: 120 h (drug added 48 h after transfection, read 72 h later)
Conditions: camptothecin 20 nM (about EC30) for 72 h; vehicle 0.1% DMSO in parallel plates
Measurement: 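CellTiter-Glo ATP signal, scaled to control siRNA as percent viability; sensitisation given as log2 of untreated divided by camptothecin-treated viability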
Direction: log2 vehicle/camptothecin viability: higher = stronger sensitisation to camptothecin; viability with camptothecin: higher = more viable cells
Call rule: 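Active genes have an RSA gene-level p-value below 0.001, computed from the ratios of their separate siRNAs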

| gene | siRNA no. | log2 vehicle/camptothecin viability | viability with camptothecin (% of control) |
| --- | --- | --- | --- |
| MTHFD1 | 1 | -0.787 | 97.7 |
| MTHFD1 | 2 | 0.211 | 47.6 |
| MTHFD1 | 3 | 0.671 | 16 |
| MTHFD1 | 4 | -0.266 | 74.2 |
| MSH6 | 1 | -0.126 | 82.1 |
| MSH6 | 2 | -0.0288 | 108 |
| MSH6 | 3 | 0.426 | 74.3 |
| MSH6 | 4 | 0.52 | 68.2 |
| BCL2L2 | 1 | -0.688 | 85.5 |
| BCL2L2 | 2 | 0.0897 | 93.7 |
| BCL2L2 | 3 | 0.132 | 79 |
| BCL2L2 | 4 | 0.356 | 43.2 |
| LMO2 | 1 | -0.309 | 61.4 |
| LMO2 | 2 | 0.298 | 46 |
| LMO2 | 3 | -0.166 | 99.8 |
| LMO2 | 4 | -0.284 | 96.2 |
| JUP | 1 | -0.237 | 54.9 |
| JUP | 2 | -0.103 | 83.6 |
| JUP | 3 | -0.432 | 85.9 |
| JUP | 4 | -0.283 | 33.8 |

Part of the list above, set out differently.
{"gene":"BCL2L2","siRNA no.":4,"log2 vehicle/camptothecin viability":0.356,"viability with camptothecin (% of control)":43.2}
{"gene":"LMO2","siRNA no.":1,"log2 vehicle/camptothecin viability":-0.309,"viability with camptothecin (% of control)":61.4}

Additional reagents:
| gene | siRNA no. | log2 vehicle/camptothecin viability | viability with camptothecin (% of control) |
| --- | --- | --- | --- |
| VAMP2 | 1 | 0.0653 | 74.2 |
| VAMP2 | 2 | -0.221 | 96.3 |
| VAMP2 | 3 | -0.448 | 90.6 |
| EIF3C | 1 | -0.519 | 50.8 |
| EIF3C | 2 | -0.0111 | 24 |
| EIF3C | 3 | -0.577 | 57.5 |
| NCOA1 | 1 | 0.0562 | 54.6 |
| NCOA1 | 2 | 0.099 | 74.4 |
| NCOA1 | 3 | -0.413 | 93.5 |
| NCOA1 | 4 | -0.429 | 93.4 |
